Assay results taken from paper PMC8758774.
No constants are given. Whether binding was seen depends on the method and setting. Binding seen in cells or lysates may run through a third protein. Some entries that bind do so weakly or less than the wild type. For some of these results: Tags and fused reporters may be left off the sequences shown.

By UniProt entry, the sequences of proteins in these tests, tags left out.
UniProt P53396: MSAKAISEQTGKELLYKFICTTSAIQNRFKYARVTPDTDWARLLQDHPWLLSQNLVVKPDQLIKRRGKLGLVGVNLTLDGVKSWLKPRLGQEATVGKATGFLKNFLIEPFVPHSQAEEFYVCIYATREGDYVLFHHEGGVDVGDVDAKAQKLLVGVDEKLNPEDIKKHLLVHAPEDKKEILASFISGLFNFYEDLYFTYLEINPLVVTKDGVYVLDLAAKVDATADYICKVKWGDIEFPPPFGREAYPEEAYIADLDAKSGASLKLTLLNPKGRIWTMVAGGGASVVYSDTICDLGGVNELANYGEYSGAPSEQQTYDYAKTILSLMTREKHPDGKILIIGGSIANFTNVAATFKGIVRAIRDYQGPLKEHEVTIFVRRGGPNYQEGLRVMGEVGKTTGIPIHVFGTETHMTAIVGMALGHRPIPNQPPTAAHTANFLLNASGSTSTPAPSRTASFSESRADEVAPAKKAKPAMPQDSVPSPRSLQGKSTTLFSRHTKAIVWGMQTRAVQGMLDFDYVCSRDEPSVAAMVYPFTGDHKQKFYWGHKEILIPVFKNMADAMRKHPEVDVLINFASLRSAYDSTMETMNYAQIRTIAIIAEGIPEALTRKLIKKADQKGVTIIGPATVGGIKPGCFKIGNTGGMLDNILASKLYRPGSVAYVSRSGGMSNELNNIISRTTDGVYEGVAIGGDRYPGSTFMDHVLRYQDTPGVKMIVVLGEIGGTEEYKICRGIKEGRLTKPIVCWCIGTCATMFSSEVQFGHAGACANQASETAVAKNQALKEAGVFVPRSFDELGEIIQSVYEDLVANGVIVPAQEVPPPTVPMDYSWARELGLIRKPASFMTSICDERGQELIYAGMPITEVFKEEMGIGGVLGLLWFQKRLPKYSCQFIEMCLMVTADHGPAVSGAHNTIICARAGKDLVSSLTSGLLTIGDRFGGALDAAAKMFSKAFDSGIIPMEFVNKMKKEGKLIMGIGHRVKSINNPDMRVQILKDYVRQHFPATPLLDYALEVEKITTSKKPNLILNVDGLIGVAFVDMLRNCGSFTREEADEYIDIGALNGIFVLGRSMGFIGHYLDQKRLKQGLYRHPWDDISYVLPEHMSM

Assays:
[1] = biological target: T1, HSPC111 (human (endogenous in LX-2)) (UniProt Q9Y3C1); assay: co-IP; endogenous proteins in LX-2 cells, NP-40 lysis buffer, antibodies overnight at 4 °C, protein A/G magnetic beads, western blot; both directions
T1 sequence: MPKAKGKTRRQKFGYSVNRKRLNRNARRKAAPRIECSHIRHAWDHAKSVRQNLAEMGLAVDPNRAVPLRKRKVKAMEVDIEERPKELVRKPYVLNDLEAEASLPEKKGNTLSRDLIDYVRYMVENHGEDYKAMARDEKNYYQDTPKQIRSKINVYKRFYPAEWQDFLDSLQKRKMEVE

[2] = biological target: T2, GST-HSPC111 fusion protein (human) (UniProt Q9Y3C1); assay: pull-down; GST or GST-HSPC111 from BL21 immobilised on glutathione agarose resin (4 °C, 2 h), incubated with 293T lysate containing Flag-ACLY at 4 °C for 12 h, eluted with glutathione, western blot; only the target purified
T2 sequence: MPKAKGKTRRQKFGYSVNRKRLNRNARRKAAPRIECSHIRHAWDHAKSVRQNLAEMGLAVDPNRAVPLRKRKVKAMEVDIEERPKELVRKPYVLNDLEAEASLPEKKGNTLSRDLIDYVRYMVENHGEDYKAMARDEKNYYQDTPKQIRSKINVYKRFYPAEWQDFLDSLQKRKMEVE

[3] = biological target: T3, His-tagged HSPC111 (human) (UniProt Q9Y3C1); assay: co-IP; HEK293T cells co-transfected with His-HSPC111 and Flag-ACLY lentivirus, NP-40 lysis buffer, His antibody or Flag antibody overnight at 4 °C, Anti-His or Anti-Flag magnetic beads, western blot
T3 sequence: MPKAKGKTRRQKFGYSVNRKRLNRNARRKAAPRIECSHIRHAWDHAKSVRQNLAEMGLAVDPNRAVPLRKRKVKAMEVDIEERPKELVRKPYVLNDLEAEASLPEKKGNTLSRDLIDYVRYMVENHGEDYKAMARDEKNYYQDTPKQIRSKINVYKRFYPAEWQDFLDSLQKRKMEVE

[4] = biological target: ATP-citrate lyase (ACLY) (human (endogenous in LX-2)) (UniProt P53396); assay: co-IP; endogenous proteins in LX-2 cells, NP-40 lysis buffer, antibodies overnight at 4 °C, protein A/G magnetic beads, western blot; both directions

ATP-citrate lyase (ACLY) (from UniProt P53396 1-1101) (enzyme)
binding [1]: binds

Flag-ACLY (pCMV-Flag-ACLY) (from UniProt P53396 1-1101) (enzyme)
binding [2]: binds

Flag-tagged ACLY (lentiviral) (from UniProt P53396 1-1101) (enzyme)
binding [3]: binds

B1: HSPC111 (protein, UniProt Q9Y3C1 1-178)
chain: MPKAKGKTRRQKFGYSVNRKRLNRNARRKAAPRIECSHIRHAWDHAKSVRQNLAEMGLAVDPNRAVPLRKRKVKAMEVDIEERPKELVRKPYVLNDLEAEASLPEKKGNTLSRDLIDYVRYMVENHGEDYKAMARDEKNYYQDTPKQIRSKINVYKRFYPAEWQDFLDSLQKRKMEVE
binding [4]: binds
